Publication doi:10.1101/2020.02.28.969071
Read-outs that look alike come from different tables or passages of the source. Results are given in words; binding and its absence hold for the method and conditions named. Some binding calls cover weakened binding; strength is not graded here.

Protein sequences, listed by entry. Tags and fused reporters are not part of them. Lines headed by an entry give the natural chain unless they say otherwise; changes in a name come on top. Chains listed by the source or under a name are the forms on record and can include a tag or linker.
UniProt Q8C7D2: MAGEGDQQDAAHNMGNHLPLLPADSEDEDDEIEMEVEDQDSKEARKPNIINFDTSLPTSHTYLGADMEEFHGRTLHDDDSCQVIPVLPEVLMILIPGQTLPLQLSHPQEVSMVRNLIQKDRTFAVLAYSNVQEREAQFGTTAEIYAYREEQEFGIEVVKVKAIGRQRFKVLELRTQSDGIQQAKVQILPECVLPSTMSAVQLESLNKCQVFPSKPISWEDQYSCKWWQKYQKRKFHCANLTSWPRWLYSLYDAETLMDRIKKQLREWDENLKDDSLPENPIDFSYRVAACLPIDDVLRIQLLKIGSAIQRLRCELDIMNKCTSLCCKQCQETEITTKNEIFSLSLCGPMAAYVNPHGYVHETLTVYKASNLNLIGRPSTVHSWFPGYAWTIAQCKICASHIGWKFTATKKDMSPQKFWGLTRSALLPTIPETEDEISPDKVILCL
UniProt P0CF65: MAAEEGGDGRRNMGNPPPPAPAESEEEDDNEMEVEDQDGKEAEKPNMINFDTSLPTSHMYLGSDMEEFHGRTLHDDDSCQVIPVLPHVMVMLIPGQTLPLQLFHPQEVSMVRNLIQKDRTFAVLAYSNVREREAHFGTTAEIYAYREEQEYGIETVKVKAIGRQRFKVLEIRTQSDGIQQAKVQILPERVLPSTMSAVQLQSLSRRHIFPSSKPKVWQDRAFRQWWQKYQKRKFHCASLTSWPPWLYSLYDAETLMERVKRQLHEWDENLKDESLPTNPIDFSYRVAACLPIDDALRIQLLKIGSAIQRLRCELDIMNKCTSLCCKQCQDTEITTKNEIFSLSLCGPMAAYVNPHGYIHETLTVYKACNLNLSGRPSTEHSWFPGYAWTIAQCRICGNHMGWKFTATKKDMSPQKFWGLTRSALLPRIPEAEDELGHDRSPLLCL
UniProt Q8BX22: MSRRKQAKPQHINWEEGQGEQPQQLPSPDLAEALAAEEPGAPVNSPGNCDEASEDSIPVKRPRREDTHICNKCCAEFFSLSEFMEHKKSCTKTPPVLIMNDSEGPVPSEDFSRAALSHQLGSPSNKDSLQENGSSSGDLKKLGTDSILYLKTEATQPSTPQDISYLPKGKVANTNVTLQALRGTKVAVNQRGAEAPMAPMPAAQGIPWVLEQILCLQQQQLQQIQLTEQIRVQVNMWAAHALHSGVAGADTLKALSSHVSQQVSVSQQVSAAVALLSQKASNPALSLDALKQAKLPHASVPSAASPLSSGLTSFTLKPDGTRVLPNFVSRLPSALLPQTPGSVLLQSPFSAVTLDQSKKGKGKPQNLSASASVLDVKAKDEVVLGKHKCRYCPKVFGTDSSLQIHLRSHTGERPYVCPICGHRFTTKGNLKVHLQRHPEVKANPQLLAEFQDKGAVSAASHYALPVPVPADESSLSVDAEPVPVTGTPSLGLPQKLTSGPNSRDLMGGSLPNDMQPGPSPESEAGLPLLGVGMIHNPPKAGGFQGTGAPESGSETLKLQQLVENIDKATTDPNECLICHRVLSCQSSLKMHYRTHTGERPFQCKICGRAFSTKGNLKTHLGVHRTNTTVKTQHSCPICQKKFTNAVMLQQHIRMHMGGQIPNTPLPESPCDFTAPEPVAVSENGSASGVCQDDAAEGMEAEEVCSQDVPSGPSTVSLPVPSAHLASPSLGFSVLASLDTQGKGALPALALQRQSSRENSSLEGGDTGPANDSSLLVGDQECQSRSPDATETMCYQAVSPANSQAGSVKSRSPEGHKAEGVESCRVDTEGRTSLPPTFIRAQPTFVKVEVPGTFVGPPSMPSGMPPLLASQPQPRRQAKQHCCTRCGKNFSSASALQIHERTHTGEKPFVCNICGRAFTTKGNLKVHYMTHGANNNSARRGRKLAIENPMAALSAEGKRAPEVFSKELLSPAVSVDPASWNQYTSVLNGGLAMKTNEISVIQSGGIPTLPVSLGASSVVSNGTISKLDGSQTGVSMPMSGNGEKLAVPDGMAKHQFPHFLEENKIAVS
FLAG-GST-GgSall4 (A0A8V0YRY0, form named): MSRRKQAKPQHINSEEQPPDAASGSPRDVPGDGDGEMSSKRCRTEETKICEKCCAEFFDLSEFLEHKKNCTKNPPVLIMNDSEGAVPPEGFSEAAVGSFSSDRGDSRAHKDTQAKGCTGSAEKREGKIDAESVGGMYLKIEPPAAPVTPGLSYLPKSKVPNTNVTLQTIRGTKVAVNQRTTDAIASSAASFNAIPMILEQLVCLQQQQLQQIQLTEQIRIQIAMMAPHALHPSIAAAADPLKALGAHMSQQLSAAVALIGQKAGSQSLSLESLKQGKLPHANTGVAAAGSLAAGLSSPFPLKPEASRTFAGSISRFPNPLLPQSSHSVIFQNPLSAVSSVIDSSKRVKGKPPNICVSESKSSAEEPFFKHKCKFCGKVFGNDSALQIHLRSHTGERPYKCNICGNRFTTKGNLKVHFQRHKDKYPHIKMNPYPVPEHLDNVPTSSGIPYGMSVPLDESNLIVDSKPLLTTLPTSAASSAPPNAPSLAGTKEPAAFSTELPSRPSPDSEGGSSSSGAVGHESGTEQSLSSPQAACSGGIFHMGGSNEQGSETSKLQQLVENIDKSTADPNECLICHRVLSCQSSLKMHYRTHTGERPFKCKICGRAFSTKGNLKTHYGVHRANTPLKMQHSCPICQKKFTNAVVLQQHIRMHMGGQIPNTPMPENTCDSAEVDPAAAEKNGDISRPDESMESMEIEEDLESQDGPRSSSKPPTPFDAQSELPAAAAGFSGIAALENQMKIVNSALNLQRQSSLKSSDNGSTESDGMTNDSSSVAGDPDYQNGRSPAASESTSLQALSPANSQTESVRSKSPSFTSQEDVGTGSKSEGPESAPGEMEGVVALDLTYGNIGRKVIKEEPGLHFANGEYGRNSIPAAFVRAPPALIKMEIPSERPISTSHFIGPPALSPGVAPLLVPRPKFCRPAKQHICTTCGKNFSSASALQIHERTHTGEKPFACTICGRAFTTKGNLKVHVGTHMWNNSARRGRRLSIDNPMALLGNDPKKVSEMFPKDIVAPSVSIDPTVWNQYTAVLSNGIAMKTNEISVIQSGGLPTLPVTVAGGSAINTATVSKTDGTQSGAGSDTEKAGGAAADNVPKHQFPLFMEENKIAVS

What was measured:
Test in all cases: AlphaScreen or HTRF
[1] = target: biotinylated MmCrbn, wild type (mouse) (UniProt Q8C7D2)
[2] = target: biotinylated GgCrbn, wild type (chicken) (UniProt P0CF65)
[3] = target: biotinylated HsCRBN (bls-CRBN), wild type (human) (UniProt Q96SW2)
[4] = target: biotinylated HsCRBN (bls-CRBN), wild type (human) (UniProt Q96SW2); remark: listed apart in the source

Which binding [1] does the source give for “FLAG-GST-MmSall4 (from UniProt Q8BX22 1-1067)” here?
The binding was “no binding”.

Which binding [2] does the source give for “FLAG-GST-GgSall4 (from UniProt A0A8V0YRY0 1-1108)” here?
Its binding is “no binding”.

What does the source list for “FLAG-GST-HNRNPK (from UniProt P61978 1-463)”?
binding [3]: binds; binding [4]: binds
